In US20060129225A1, “Device for the delivery of a cardioprotective agent to ischemic reperfused myocardium” (priority 2004, published 2006):

Assay: Liquid formulations of sirolimus with PEG 200, ethanol and water (liquid chromatography)
Format: physicochemical
Conditions: 4 mg/ml PEG 200 formulation
From the text: In accordance with exemplary embodiments of the present invention, a series of liquid formulations were developed for the local or regional delivery of water insoluble compounds such as sirolimus and its analogs, including CCI-779, ABT-578 and everolimus, through weeping balloons and catheter injection needles. […] These liquid formulations increase the apparent solubility of the pharmacologically active but water insoluble compounds by two to four orders of magnitude as compared to the solubility limits of the compounds in water. These liquid formulations rely on the use of a very small amount of organic solvents such as Ethanol (typically less than two percent) and a larger amount of safe amphiphilic (of or relating to a molecule having a polar, water soluble group attached to a non-polar, water insoluble […]) excipients such as polyethylene glycol (PEG 200, PEG 400) and vitamin E TPGS to enhance the solubility of the compounds. These liquid formulations of highly water insoluble compounds are stable and readily flowable at room temperature. […]
Table 8, shown below, summarizes the concentrations of the excipient, the co-solvents and the drug for four different liquid formulations in accordance with exemplary embodiments of the present invention. The concentrations of each constituent were determined by liquid chromatography and are presented as weight by volume figures. […]

CO[C@H]1C[C@@H]2CC[C@@H](C)[C@@](O)(O2)C(=O)C(=O)N2CCCC[C@H]2C(=O)O[C@H]([C@H](C)C[C@@H]2CC[C@@H](O)[C@H](OC)C2)CC(=O)[C@H](C)/C=C(\C)[C@@H](O)[C@@H](OC)C(=O)[C@H](C)C[C@H](C)/C=C/C=C/C=C/1C [rapamycin]
concentration relative to the solubility of sirolimus in water: four hundred to about one thousand
